These are yes or no findings as the source states them, for the method shown. Binding seen in cells or lysates may run through a third protein. Some binding calls cover weakened binding; strength is not graded here.

These results are taken from paper PMC9618391 (2022).

Assay [1] has as its target T1, μ1A subunit of AP-1A, endogenous in rat PCCl3 cells (rat (endogenous in PCCl3)) (UniProt Q32Q06).
T1 sequence: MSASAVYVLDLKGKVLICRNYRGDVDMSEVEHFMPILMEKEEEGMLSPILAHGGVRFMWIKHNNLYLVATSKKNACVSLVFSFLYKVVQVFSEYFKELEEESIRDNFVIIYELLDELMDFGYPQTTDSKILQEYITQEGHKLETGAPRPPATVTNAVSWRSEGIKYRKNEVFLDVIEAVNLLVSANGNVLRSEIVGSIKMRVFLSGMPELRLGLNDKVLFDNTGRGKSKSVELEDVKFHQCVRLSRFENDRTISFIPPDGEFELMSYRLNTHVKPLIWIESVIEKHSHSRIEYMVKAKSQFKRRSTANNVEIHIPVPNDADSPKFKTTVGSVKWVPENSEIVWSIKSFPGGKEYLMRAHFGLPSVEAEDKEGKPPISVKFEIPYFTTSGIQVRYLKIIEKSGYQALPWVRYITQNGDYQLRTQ
In words: co-IP; endogenous proteins of PCCl3 cells; IP with rNIS, μ1A or μ1B antibodies, Western blotting of input and IP complexes. For orientation: Immunoblotting shows a protein as a band on a membrane.

The target of assay [2] is T2, μ1B (AP1M2) expressed from cDNA in COS-7 cells (UniProt Q9Y6Q5).
T2 sequence: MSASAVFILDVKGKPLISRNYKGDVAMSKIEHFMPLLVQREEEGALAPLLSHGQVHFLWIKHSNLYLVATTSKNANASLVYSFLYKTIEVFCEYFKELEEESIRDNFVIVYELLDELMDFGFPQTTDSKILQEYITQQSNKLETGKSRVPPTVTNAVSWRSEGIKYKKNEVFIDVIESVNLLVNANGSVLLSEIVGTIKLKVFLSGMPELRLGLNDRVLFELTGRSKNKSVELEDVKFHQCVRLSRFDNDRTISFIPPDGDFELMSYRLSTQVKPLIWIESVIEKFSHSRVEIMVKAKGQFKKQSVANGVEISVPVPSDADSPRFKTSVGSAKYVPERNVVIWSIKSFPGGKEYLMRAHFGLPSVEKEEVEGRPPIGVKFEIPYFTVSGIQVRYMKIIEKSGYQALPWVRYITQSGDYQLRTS
In words: co-IP; COS-7 cells cotransfected with WT hNIS or mutants and with μ1A or μ1B; IP with μ1A or μ1B antibodies, immunoblot with rabbit polyclonal anti-hNIS antibody; NIS signal in IP standardized to input and normalized to WT.

The target of assay [3] is T3, μ1A (AP1M1) expressed from cDNA in COS-7 cells (UniProt Q9BXS5).
T3 sequence: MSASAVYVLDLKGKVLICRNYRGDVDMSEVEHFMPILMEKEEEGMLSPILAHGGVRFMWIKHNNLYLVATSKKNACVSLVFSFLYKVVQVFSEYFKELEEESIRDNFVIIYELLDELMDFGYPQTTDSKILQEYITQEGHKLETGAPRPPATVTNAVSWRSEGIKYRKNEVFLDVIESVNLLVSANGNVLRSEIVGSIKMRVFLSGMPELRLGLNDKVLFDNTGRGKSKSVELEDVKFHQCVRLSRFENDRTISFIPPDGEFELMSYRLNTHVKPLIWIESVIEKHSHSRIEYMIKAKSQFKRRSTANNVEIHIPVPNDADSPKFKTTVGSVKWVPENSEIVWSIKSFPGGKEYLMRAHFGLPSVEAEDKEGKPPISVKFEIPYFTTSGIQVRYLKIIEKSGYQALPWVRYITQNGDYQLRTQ
The description is as above.

B1: sodium/iodide symporter (NIS), endogenous in rat PCCl3 cells (protein, UniProt Q63008 1-618)
chain: MEGAEAGARATFGAWDYGVFATMLLVSTGIGLWVGLARGGQRSADDFFTGGRQLAAVPVGLSLAASFMSAVQVLGVPAEAARYGLKFLWMCAGQLLNSLLTAFLFLPIFYRLGLTSTYQYLELRFSRAVRLCGTLQYLVATMLYTGIVIYAPALILNQVTGLDIWASLLSTGIICTLYTTVGGMKAVVWTDVFQVVVMLVGFWVILARGVILLGGPRNVLSLAQNHSRINLMDFDPDPRSRYTFWTFIVGGTLVWLSMYGVNQAQVQRYVACHTEGKAKLALLVNQLGLFLIVASAACCGIVMFVYYKDCDPLLTGRISAPDQYMPLLVLDIFEDLPGVPGLFLACAYSGTLSTASTSINAMAAVTVEDLIKPRMPGLAPRKLVFISKGLSFIYGSACLTVAALSSLLGGGVLQGSFTVMGVISGPLLGAFTLGMLLPACNTPGVLSGLAAGLAVSLWVAVGATLYPPGEQTMGVLPTSAAGCTNDSVLLGPPGATNASNGIPSSGMDTGRPALADTFYAISYLYYGALGTLTTMLCGALISYLTGPTKRSSLGPGLLWWDLARQTASVAPKEDTATLEESLVKGPEDIPAVTKKPPGLKPGAETHPLYLGHDVETNL
Regarding B1, the binding entry in assay [1] is given as “binds”.

B2: hNIS Y120A (protein, UniProt Q92911 1-643)
chain: MEAVETGERPTFGAWDYGVFALMLLVSTGIGLWVGLARGGQRSAEDFFTGGRRLAALPVGLSLSASFMSAVQVLGVPSEAYRYGLKFLWMCLGQLLNSVLTALLFMPVFYRLGLTSTYEALEMRFSRAVRLCGTLQYIVATMLYTGIVIYAPALILNQVTGLDIWASLLSTGIICTFYTAVGGMKAVVWTDVFQVVVMLSGFWVVLARGVMLVGGPRQVLTLAQNHSRINLMDFNPDPRSRYTFWTFVVGGTLVWLSMYGVNQAQVQRYVACRTEKQAKLALLINQVGLFLIVSSAACCGIVMFVFYTDCDPLLLGRISAPDQYMPLLVLDIFEDLPGVPGLFLACAYSGTLSTASTSINAMAAVTVEDLIKPRLRSLAPRKLVIISKGLSLIYGSACLTVAALSSLLGGGVLQGSFTVMGVISGPLLGAFILGMFLPACNTPGVLAGLGAGLALSLWVALGATLYPPSEQTMRVLPSSAARCVALSVNASGLLDPALLPANDSSRAPSSGMDASRPALADSFYAISYLYYGALGTLTTVLCGALISCLTGPTKRSTLAPGLLWWDLARQTASVAPKEEVAILDDNLVKGPEELPTGNKKPPGFLPTNEDRLFFLGQKELEGAGSWTPCVGHDGGRDQQETNL
For B2, the binding entry in assay [2] and in assay [3] was “binds” throughout.
